Source: the supplement of paper PMC12823440, “Inhibitors supercharge kinase turnover through native proteolytic circuits” (Nature, 2025)
Where a name gives a salt, the structure may show the parent alone. Some of the results follow. The calls rarely recur for the same compound in another form.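 Kinases were expressed as nanoluciferase fusions in K562 cells and luminescence was read every 4 h between 2 and 18 h as percent of control, DMSO set to 100% and a positive control to 0%. A time point counts as decreased when the signal drops significantly (2 sigma). The hit call is the authors' own, does not follow from the count of time points alone, and its rule is not shown.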

Sequences of proteins named here, by UniProt entry; tags and fusion partners are left off. A change or cut given only in a name is not applied to a line headed by its entry.
UniProt P36888, whole entry: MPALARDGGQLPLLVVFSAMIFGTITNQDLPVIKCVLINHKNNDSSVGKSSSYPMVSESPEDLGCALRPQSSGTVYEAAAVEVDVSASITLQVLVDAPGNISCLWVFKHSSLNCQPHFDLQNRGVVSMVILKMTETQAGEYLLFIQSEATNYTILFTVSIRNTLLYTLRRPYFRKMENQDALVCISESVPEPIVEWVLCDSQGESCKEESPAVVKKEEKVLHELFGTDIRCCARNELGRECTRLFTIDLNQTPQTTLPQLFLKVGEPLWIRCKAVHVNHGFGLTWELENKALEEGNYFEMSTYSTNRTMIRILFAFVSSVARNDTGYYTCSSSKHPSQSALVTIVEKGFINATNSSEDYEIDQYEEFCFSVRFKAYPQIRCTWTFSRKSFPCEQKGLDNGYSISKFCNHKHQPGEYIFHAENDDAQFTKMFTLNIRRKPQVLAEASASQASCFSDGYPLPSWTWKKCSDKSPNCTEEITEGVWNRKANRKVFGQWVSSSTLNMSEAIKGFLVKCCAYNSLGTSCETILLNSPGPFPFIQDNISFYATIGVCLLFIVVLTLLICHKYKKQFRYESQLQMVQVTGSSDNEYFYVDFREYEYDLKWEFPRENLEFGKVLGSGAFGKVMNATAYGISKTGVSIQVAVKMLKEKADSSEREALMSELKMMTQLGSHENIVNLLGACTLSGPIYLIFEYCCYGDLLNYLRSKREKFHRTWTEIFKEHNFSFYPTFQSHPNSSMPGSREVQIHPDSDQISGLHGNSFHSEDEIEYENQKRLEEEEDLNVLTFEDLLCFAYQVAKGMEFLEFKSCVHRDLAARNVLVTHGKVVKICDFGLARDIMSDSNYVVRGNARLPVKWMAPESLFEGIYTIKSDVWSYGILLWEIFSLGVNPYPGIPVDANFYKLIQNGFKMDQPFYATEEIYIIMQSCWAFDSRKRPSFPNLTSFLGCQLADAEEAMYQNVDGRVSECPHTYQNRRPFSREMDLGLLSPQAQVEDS
UniProt P49840: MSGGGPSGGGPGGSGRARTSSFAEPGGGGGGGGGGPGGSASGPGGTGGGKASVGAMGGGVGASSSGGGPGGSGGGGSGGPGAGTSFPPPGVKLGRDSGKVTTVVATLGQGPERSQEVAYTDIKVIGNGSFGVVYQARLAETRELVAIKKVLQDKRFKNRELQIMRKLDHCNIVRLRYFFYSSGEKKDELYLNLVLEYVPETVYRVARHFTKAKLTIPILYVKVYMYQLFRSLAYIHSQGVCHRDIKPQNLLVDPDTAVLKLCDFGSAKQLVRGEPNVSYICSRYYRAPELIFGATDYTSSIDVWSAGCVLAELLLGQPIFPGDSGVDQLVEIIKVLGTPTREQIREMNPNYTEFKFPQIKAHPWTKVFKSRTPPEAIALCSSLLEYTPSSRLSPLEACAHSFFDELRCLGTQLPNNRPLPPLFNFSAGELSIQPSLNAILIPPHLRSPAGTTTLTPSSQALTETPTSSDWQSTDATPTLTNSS
UniProt P14616: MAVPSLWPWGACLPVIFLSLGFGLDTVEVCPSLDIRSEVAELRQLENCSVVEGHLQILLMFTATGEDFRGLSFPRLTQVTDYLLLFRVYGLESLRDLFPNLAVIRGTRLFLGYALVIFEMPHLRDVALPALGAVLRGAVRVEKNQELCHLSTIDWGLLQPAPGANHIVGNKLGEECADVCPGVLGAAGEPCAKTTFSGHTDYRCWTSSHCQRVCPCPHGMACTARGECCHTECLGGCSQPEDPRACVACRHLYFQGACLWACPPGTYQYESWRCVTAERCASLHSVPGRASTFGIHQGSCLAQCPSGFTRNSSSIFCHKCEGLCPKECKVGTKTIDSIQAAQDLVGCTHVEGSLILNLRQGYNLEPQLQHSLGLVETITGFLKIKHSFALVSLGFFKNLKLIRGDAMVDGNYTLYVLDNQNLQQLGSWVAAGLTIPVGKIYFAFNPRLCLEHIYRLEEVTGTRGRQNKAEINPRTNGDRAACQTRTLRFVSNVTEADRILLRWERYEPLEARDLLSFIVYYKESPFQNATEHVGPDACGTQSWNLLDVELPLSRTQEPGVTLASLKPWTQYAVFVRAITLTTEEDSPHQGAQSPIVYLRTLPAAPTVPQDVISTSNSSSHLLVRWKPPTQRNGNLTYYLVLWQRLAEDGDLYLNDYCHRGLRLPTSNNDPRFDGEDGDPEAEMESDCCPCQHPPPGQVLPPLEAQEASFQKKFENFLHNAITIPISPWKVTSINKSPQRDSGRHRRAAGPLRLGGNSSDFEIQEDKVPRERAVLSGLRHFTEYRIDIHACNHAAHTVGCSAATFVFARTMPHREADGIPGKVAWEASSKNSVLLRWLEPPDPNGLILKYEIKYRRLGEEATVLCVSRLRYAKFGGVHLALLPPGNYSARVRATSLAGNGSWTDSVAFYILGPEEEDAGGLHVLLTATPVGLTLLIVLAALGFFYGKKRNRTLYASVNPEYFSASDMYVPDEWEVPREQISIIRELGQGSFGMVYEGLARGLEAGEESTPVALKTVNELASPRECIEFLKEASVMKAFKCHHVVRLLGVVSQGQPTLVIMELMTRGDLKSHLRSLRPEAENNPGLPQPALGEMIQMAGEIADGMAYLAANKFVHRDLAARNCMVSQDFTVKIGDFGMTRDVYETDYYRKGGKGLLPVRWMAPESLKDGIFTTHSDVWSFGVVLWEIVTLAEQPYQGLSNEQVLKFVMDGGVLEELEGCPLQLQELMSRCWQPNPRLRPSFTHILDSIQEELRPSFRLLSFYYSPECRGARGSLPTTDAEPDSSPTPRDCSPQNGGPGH
UniProt Q9Y616: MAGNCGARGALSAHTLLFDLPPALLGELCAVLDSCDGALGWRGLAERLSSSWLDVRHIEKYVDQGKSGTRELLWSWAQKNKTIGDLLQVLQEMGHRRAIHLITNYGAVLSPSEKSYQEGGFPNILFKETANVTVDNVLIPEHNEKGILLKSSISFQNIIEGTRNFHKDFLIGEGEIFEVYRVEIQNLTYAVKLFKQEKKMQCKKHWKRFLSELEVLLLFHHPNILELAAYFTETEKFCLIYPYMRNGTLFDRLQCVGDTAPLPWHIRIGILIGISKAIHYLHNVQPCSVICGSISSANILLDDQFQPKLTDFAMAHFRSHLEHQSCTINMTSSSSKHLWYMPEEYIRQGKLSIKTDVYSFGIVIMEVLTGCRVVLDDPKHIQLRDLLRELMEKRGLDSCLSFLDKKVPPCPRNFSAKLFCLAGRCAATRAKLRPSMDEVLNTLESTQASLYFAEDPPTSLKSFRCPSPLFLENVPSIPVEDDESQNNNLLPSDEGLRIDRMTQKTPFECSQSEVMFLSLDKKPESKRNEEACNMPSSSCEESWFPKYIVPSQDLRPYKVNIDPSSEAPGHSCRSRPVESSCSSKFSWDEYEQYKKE
UniProt P23458: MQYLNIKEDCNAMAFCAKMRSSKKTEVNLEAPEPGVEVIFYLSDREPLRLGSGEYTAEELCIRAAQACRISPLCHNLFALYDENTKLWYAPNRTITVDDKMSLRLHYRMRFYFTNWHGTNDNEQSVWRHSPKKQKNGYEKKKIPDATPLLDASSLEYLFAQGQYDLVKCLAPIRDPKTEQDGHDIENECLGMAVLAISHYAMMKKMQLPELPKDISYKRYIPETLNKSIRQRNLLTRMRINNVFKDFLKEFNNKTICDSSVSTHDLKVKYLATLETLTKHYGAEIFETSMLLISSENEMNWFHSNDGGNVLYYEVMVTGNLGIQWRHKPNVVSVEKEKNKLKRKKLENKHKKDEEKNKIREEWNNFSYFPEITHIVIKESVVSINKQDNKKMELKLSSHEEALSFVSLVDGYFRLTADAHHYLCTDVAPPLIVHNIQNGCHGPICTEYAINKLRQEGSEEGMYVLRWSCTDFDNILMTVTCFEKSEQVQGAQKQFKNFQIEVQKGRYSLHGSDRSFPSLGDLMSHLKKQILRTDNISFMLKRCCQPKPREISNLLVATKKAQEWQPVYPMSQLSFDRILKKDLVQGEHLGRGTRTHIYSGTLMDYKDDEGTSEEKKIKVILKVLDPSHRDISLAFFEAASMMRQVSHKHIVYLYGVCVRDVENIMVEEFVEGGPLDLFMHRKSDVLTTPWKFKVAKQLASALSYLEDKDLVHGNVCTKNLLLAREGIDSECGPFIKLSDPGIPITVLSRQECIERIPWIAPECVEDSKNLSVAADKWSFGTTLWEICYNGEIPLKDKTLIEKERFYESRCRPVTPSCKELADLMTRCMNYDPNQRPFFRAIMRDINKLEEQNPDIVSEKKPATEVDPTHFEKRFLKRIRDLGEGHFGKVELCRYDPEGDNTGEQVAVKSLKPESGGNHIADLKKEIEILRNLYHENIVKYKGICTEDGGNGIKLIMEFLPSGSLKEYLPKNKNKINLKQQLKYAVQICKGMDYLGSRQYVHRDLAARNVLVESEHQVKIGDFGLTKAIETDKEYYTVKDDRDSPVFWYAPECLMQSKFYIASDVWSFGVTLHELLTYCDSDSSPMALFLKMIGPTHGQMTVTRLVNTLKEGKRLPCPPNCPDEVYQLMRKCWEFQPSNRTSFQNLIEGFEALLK
UniProt P06239: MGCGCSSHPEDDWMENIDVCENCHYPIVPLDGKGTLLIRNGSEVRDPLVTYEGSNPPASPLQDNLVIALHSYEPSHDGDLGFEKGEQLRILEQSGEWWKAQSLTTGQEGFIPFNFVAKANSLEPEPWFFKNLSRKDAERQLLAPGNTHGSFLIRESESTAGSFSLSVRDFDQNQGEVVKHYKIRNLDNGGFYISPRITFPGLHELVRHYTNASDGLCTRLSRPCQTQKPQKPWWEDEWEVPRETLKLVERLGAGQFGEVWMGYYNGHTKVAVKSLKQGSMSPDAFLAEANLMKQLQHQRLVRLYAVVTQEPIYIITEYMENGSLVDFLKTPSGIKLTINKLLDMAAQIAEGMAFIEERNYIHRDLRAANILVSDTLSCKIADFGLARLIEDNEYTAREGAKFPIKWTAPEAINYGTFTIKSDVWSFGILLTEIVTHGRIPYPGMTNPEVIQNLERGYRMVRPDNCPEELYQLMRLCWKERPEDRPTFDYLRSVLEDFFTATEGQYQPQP
UniProt P53667: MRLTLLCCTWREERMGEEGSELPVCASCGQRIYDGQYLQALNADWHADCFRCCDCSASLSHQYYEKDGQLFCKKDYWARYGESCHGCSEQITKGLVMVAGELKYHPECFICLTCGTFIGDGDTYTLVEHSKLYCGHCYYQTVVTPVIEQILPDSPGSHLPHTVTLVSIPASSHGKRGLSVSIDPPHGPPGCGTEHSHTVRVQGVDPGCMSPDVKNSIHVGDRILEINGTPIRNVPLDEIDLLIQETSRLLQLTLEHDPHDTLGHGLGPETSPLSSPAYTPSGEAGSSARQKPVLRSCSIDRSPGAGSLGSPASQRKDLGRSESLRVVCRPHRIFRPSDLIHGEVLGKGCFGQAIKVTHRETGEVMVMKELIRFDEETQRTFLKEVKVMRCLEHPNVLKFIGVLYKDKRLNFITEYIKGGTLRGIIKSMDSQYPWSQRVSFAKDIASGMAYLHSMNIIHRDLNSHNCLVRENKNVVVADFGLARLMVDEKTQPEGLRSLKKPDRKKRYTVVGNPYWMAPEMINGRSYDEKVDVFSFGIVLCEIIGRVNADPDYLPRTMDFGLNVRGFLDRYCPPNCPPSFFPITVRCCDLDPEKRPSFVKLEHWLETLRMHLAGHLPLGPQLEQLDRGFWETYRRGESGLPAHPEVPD
UniProt P53671: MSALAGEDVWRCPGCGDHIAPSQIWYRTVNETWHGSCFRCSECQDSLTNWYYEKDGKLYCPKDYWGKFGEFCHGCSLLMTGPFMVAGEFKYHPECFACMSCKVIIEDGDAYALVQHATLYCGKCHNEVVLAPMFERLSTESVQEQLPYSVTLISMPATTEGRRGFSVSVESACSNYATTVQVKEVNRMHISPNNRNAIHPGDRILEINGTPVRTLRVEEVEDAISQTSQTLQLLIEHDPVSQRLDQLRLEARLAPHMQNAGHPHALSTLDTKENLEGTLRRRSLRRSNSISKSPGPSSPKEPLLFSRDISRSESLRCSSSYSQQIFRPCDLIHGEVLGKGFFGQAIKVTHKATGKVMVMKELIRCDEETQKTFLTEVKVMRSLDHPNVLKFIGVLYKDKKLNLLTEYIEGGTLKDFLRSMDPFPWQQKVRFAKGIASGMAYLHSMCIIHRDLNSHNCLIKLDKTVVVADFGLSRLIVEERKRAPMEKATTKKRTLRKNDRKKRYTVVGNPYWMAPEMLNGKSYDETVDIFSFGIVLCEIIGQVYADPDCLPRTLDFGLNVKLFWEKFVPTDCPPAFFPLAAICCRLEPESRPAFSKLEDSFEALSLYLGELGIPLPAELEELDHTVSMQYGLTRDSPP

How the values were obtained:
Test in all cases: number of time points (of 5) at which kinase-Nluc abundance scored as decreased, DMSO-normalised (count); higher = more persistent destabilization
Settings in all cases: K562; 2-18 h
[1] = molecular target: FLT3 (UniProt P36888)
[2] = molecular target: FYN (UniProt P06241)
[3] = molecular target: GSK3A (UniProt P49840)
[4] = molecular target: HER2 (UniProt P04626)
[5] = molecular target: INSRR (UniProt P14616)
[6] = molecular target: IRAK3 (UniProt Q9Y616)
[7] = molecular target: JAK1 (UniProt P23458)
[8] = molecular target: LCK (UniProt P06239)
[9] = molecular target: LIMK1 (UniProt P53667)
[10] = molecular target: LIMK2 (UniProt P53671)

SMILES | number of time points [1] | number of time points [2] | number of time points [3] | number of time points [4] | number of time points [5] | number of time points [6] | number of time points [7] | number of time points [8] | number of time points [9] | number of time points [10]
COc1cc(N2CCOCC2)ccc1Nc1ncc(Cl)c(Nc2ccccc2NS(C)(=O)=O)n1 (2.5 µM) | 0 | 0 | 0 | 0 | 0 | 0 | 0 | 0 | 0 | 0
CC(C)(C[C@H](N)C(=O)O)C(F)F [NV-5138 (hydrochloride)] (10 µM) | 0 | 0 | 0 | 0 | 0 | 0 | 0 | 0 | 0 | 0
CCc1cccc(CC)c1NC(=O)N1Cc2[nH]nc(NC(=O)c3ccc(N4CCN(C)CC4)cc3)c2C1 (2.5 µM) | 1 | 2 | 0 | 1 | 3 | 0 | 3 | 0 | 4 | 2
Nc1ncnc2c1c(-c1ccc(Oc3ccccc3)cc1)nn2C1CCN(CCOCCOCCOc2ccc3c(c2)CN(C2CCC(=O)NC2=O)C3=O)CC1 (stereo not given) (2.5 µM) | 0 | 0 | 0 | 0 | 0 | 0 | 0 | 0 | 0 | 0
Cc1cc(Nc2nc(CC3(C(=O)O)CCN(C(=O)c4cccc(Cl)c4Cl)CC3)ccc2F)n[nH]1 (10 µM) | 2 | 0 | 0 | 0 | 3 | 0 | 1 | 0 | 0 | 0
Cc1ccc(-c2csc3ncnc(SCCC(=O)O)c23)cc1 (10 µM) | 0 | 0 | 0 | 0 | 0 | 0 | 0 | 0 | 0 | 0
C[C@@H]1CN(c2cc(-c3n[nH]c4ccc(OC5(C)CC5)cc34)ncn2)C[C@H](C)O1 (10 µM) | 0 | 0 | 0 | 0 | 0 | 0 | 0 | 0 | 0 | 1
Cn1cnc([N+](=O)[O-])c1C[N+](C)(C)C/C=C/C(=O)Nc1cc2c(Nc3ccc(Cl)c(Br)c3)ncnc2cn1 [Tarloxotinib (bromide)] (10 µM) | 0 | 0 | 0 | 4 | 0 | 0 | 0 | 0 | 0 | 0
CC(C)c1cccc(C(C)C)c1N1C(=O)c2ccc(N)cc2C1=O (2.5 µM) | 0 | 0 | 0 | 0 | 0 | 0 | 0 | 0 | 0 | 0
Cc1cnc(-c2ccc(-c3ccc(NC(=O)Nc4cccc(C(F)(F)F)c4)cc3F)c3c2C(=O)NC3)[nH]1 (10 µM) | 0 | 0 | 0 | 1 | 0 | 0 | 0 | 0 | 0 | 0
Cc1cccc2c3c(ccc12)C(=O)C1=C(OCC1C)C3=O (stereo not given) [Dihydroisotanshinone I] (2.5 µM) | 0 | 0 | 0 | 0 | 0 | 0 | 0 | 0 | 0 | 0
COc1ccc2cc3[n+](cc2c1OC)CCc1cc(O)c(O)cc1-3 [Demethyleneberberine] (10 µM) | 0 | 0 | 0 | 0 | 0 | 0 | 0 | 0 | 0 | 0
Cn1cc2cc(C(F)(F)c3nnc4ccc(-c5cnn(C6CC6)c5)nn34)c(F)cc2n1 [Bozitinib] (10 µM) | 0 | 0 | 0 | 0 | 0 | 0 | 0 | 0 | 0 | 0
COCCNc1cc(NC(=O)N2CCCc3cc(CN4CCN(C)CC4=O)c(C=O)nc32)ncc1C#N [Roblitinib] (10 µM) | 0 | 0 | 0 | 0 | 0 | 0 | 0 | 0 | 0 | 0
COc1ccccc1C(=O)/C=C/c1ccccc1C(=O)O (10 µM) | 0 | 0 | 0 | 0 | 0 | 0 | 0 | 0 | 0 | 0
C[C@@H]1COCCN1c1nc(-c2cnc(N)cc2C(F)F)nc(N2[C@H](C)COC[C@@H]2C)n1 (2.5 µM) | 0 | 0 | 0 | 0 | 0 | 2 | 0 | 0 | 0 | 4
Nc1nc(N)c2nc(-c3cccc(O)c3)cnc2n1 (10 µM) | 0 | 0 | 0 | 0 | 0 | 0 | 0 | 0 | 0 | 0
NC1=NCCN1CC(=O)O [Cyclocreatine] (10 µM) | 0 | 0 | 0 | 0 | 0 | 0 | 0 | 0 | 0 | 0
O=C(N[C@@H](C1CC1)C(F)(F)F)c1cc(-c2cnn3cc(-c4ccc(F)cc4)cnc23)cs1 (10 µM) | 0 | 2 | 0 | 0 | 0 | 0 | 0 | 0 | 0 | 0
CN1CCC(c2ccccc2CC(C)(C)Nc2nc(N3CCOCC3)nc(-n3c(C(F)F)nc4ccccc43)n2)CC1 [Zandelisib] (10 µM) | 0 | 0 | 0 | 0 | 0 | 0 | 0 | 0 | 0 | 0
C=CC(=O)N1CCC[C@H](n2c(=O)n(-c3ccc(Oc4ccccc4)cc3)c3c(N)ncnc32)C1 [ONO-4059 (analog)] (10 µM) | 0 | 0 | 0 | 0 | 0 | 0 | 0 | 0 | 0 | 0
Cc1nc(-c2cnn(C)c2)nc2c1[nH]c1ncc(-c3ccc(N4CCN(C)CC4)cc3)cc12 [GNE 220 (hydrochloride)] (10 µM) | 0 | 0 | 0 | 0 | 0 | 0 | 0 | 0 | 0 | 0
NC(=S)n1[nH]c(-c2ccc([N+](=O)[O-])cc2)c(N=Nc2cccc(Cl)c2)c1=O (2.5 µM) | 0 | 0 | 0 | 1 | 0 | 0 | 0 | 0 | 0 | 0

Looked up one by one from above, 4 records:
SMILES | number of time points [1] | number of time points [2] | number of time points [3] | number of time points [4] | number of time points [5] | number of time points [6] | number of time points [7] | number of time points [8] | number of time points [9] | number of time points [10]
Cn1cnc([N+](=O)[O-])c1C[N+](C)(C)C/C=C/C(=O)Nc1cc2c(Nc3ccc(Cl)c(Br)c3)ncnc2cn1 [Tarloxotinib (bromide)] (10 µM) | 0 | 0 | 0 | 4 | 0 | 0 | 0 | 0 | 0 | 0
Cc1nc(-c2cnn(C)c2)nc2c1[nH]c1ncc(-c3ccc(N4CCN(C)CC4)cc3)cc12 [GNE 220 (hydrochloride)] (10 µM) | 0 | 0 | 0 | 0 | 0 | 0 | 0 | 0 | 0 | 0
CN1CCC(c2ccccc2CC(C)(C)Nc2nc(N3CCOCC3)nc(-n3c(C(F)F)nc4ccccc43)n2)CC1 [Zandelisib] (10 µM) | 0 | 0 | 0 | 0 | 0 | 0 | 0 | 0 | 0 | 0
COc1ccccc1C(=O)/C=C/c1ccccc1C(=O)O (10 µM) | 0 | 0 | 0 | 0 | 0 | 0 | 0 | 0 | 0 | 0

Next structures:

SMILES | number of time points [1] | number of time points [2] | number of time points [3] | number of time points [4] | number of time points [5] | number of time points [6] | number of time points [7] | number of time points [8] | number of time points [9] | number of time points [10]
C=CCc1ccc(O)c(-c2ccc(O)c(CC=C)c2)c1 [Honokiol] (10 µM) | 0 | 0 | 0 | 0 | 0 | 0 | 0 | 0 | 0 | 0
COc1ccc(-c2coc3cc(O)ccc3c2=O)cc1 [Formononetin] (10 µM) | 0 | 1 | 0 | 0 | 0 | 0 | 0 | 0 | 0 | 0
O=C1/C(=C\c2ccc(Cl)cc2)C=C(c2ccccc2)N1c1ccc(O)cc1 (2.5 µM) | 0 | 0 | 0 | 0 | 0 | 0 | 0 | 0 | 0 | 0
CCN(CC)c1ccc2cc(-c3nc4cc(C)ccc4o3)c(=O)oc2c1 (10 µM) | 0 | 0 | 0 | 0 | 0 | 0 | 0 | 0 | 0 | 0
Nc1nccc(Oc2ccc(NC(=O)c3c[nH]cc(-c4ccc(F)cc4)c3=O)cc2F)c1Cl (10 µM) | 3 | 0 | 0 | 5 | 2 | 0 | 3 | 0 | 4 | 4
Nc1ncnc2c1c(COc1cccc(Cl)c1)nn2C1CCOCC1 (10 µM) | 0 | 0 | 0 | 0 | 0 | 0 | 0 | 0 | 0 | 0
COc1c(Nc2cc(C)[nH]n2)nc(Sc2ccc(S(=O)(=O)Cc3cccc([N+](=O)[O-])c3F)cc2F)nc1N1CCCCC1 [Centrinone-B] (2.5 µM) | 0 | 0 | 0 | 0 | 0 | 0 | 0 | 0 | 0 | 0
CC(C)CNc1ccnc(NCc2csc(-c3ccccc3)n2)n1 [KHS101 hydrochloride] (2.5 µM) | 0 | 0 | 0 | 0 | 0 | 0 | 0 | 0 | 0 | 0
c1cc(NC2CCNCC2)nc(-c2cnc3ccccn23)c1 [IRAK inhibitor 1] (10 µM) | 0 | 0 | 0 | 0 | 0 | 0 | 0 | 0 | 0 | 0
COc1ncccc1-c1cnn2ccc(N3CCN(C(=O)OC(C)C)CC3)nc12 (10 µM) | 0 | 0 | 0 | 0 | 0 | 0 | 0 | 0 | 0 | 0
C=C[C@@](C)(/C=C/c1ccc(O)cc1)CCC=C(C)C [Bakuchiol] (10 µM) | 0 | 0 | 0 | 0 | 0 | 0 | 0 | 0 | 0 | 0
CC[C@@](C)(Nc1ccnc(-c2c[nH]c3ncccc23)n1)C(=O)NCC(F)(F)F [Decernotinib] (10 µM) | 0 | 0 | 0 | 0 | 0 | 0 | 0 | 0 | 0 | 0
COc1nn(C)cc1Nc1nccc(-c2c[nH]c3c(NC(=O)[C@@H](C)N4CCN(C)CC4)cccc23)n1 (10 µM) | 0 | 0 | 0 | 0 | 0 | 0 | 0 | 0 | 0 | 0
O=C(O)c1cc(N(Cc2ccccc2O)Cc2ccccc2O)ccc1O [Lavendustin B] (10 µM) | 0 | 0 | 0 | 0 | 0 | 0 | 0 | 0 | 0 | 0
c1ccc(-c2nc(=NCCN3CCOCC3)sn2-c2ccccc2)cc1 [VP3.15 (dihydrobromide)] (10 µM) | 0 | 0 | 0 | 0 | 0 | 0 | 0 | 0 | 0 | 0
O=[N+]([O-])c1ccc2c(c1)S(=O)(=O)C=C2 [Stattic] (2.5 µM) | 0 | 0 | 0 | 1 | 0 | 0 | 0 | 0 | 3 | 0
O=C(Nc1cccc(C(F)(F)F)c1)c1cccc2cc(Oc3cc(CO)ncn3)ccc12 (10 µM) | 0 | 0 | 0 | 0 | 0 | 0 | 0 | 0 | 0 | 0
CC(C)=CC(=O)O[C@H]1Cc2cc3ccc(=O)oc3cc2OC1(C)C [Decursin] (10 µM) | 0 | 0 | 0 | 0 | 0 | 0 | 0 | 0 | 0 | 0
Nc1n[nH]c2nc(-c3ccc(NS(=O)(=O)c4cc(Cl)ccc4F)cc3)cnc12 (10 µM) | 0 | 0 | 0 | 1 | 0 | 0 | 0 | 0 | 0 | 0
Cc1cnc(NC2CCOCC2)nc1-n1cnc(C(=O)N[C@H](CN)c2cc(F)cc(Cl)c2)c1 (10 µM) | 0 | 0 | 0 | 0 | 0 | 0 | 0 | 0 | 0 | 0
O[C@@H]1CO[C@H]2[C@@H]1OC[C@H]2Oc1nc2nc(-c3ccc(-c4ccccc4)cc3)c(Cl)cc2[nH]1 (10 µM) | 0 | 0 | 0 | 0 | 0 | 0 | 0 | 0 | 0 | 0
Cc1ccc(Oc2nc3cc(-c4ccc(-c5ccccc5)cc4)c(Cl)cc3[nH]2)cc1C(=O)O (10 µM) | 0 | 0 | 0 | 0 | 0 | 0 | 0 | 0 | 0 | 0
